Literature values in paper PMC4303912, “A primary fish gill cell culture model to assess pharmaceutical uptake and efflux: Evidence for passive and facilitated transport” (Aquatic Toxicology (Amsterdam, Netherlands), 2015).
Marks after values point to notes of the source that are not given here.

Design: method as in AstraZeneca, 2014
Conditions: experimentally measured values; pH 7.4; ref AstraZeneca, 2014; cited from earlier work

SMILES: COc1ccc(CC(C)NCC(O)c2ccc(O)c(NC=O)c2)cc1 (stereo not shown) [Formoterol, formoterol]
- log Kow: 0.41 ^*
